# According to PubChem BioAssay AID206 (DTP/NCI, 2004):
# The list does not hold the whole screen: it is rich in T/C values a quarter to a half above the control, in often repeated tests (any T/C) and in doses without a T/C. Further doses and runs are listed elsewhere. T/C: endpoint of the treated group in % of that of the vehicle group. Schedules are NCI's codes, read here as Q, the interval in days (D) or hours (H), X, the number of doses. Some T/C values carry the count of animals alive at the toxicity check (mostly the fifth day); without a count, all were alive then. Some values lie below zero, which means that the treated tumours became smaller. Some entries were tested several times; the results are listed from low to high. Some doses have a count of surviving animals in place of a T/C: the source holds a T/C of zero for them, seemingly a mark for toxic or unscored doses. Survivors were counted at the toxicity check, usually on the fifth day, unless a day is given; later deaths do not show.
# Test system: nude mice, HT29 intrarenal xenograft, tumor weight T/C
# Test: NCI In Vivo Anticancer Drug Screen. Data for tumor model HT29;CX-1 Human Adenocarcinoma (MER+) (intrarenal inoculation) in NU/NU Swiss (nude) mice
# Settings: T/C endpoint: mean tumor weight change, higher T/C = larger tumour
# How it was run: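 Mice with transplanted tumors are dosed with compound while controls get vehicle only. Survival or tumor burden is then assessed per group, and the treated value is expressed relative to control.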
compound,measurement,setting,value
COc1cccc2c1C(=O)c1c(O)c3c(c(O)c1C2=O)C[C@@](O)(C(=O)CO)C[C@@H]3OC1CC(N)C(O)C(C)O1 (stereo partly specified),T/C,"dose: 1.0 mg/kg/injection, schedule: Q01DX010 (sc), vehicle: water, evaluated on day 11",40 % of control
same,T/C,"dose: 1.0 mg/kg/injection, schedule: Q01DX010 (sc), vehicle: water, evaluated on day 20","44, 87, 147 % of control"
same,survivor count,"dose: 2.0 mg/kg/injection, schedule: Q01DX010 (ip), vehicle: water",1 of 2 on day 11
same,T/C,"dose: 2.0 mg/kg/injection, schedule: Q01DX010 (sc), vehicle: water, evaluated on day 11",9 % of control [2 of 2 alive on day 11]
same,T/C,"dose: 2.0 mg/kg/injection, schedule: Q01DX010 (sc), vehicle: water, evaluated on day 20","23 [2 of 3 alive on day 20], 63, 83 [2 of 2 alive on day 20], 87, 105, 142, 240 % of control"
same,survivor count,"dose: 4.0 mg/kg/injection, schedule: Q01DX010 (ip), vehicle: water",0 of 3 on day 11 and 1 of 3 on day 11
same,T/C,"dose: 4.0 mg/kg/injection, schedule: Q01DX010 (sc), vehicle: water, evaluated on day 11",19 % of control [2 of 2 alive on day 11]
same,T/C,"dose: 4.0 mg/kg/injection, schedule: Q01DX010 (sc), vehicle: water, evaluated on day 20","-10, 6 [2 of 3 alive on day 20], 28, 54, 98 [2 of 3 alive on day 20], 104, 128 % of control"
same,T/C,"dose: 5.0 mg/kg/injection, schedule: Q04DX004 (sc), vehicle: water, evaluated on day 15","-17, 17, 20 [2 of 3 alive on day 15], 35, 53, 56 [2 of 2 alive on day 15], 62, 80, 138 % of control"
same,T/C,"dose: 5.0 mg/kg/injection, schedule: Q04DX004 (sc), vehicle: water, evaluated on day 20",39 % of control
same,survivor count,"dose: 5.0 mg/kg/injection, schedule: Q04DX004 (sc), vehicle: water",1 of 2 on day 15
same,survivor count,"dose: 8.0 mg/kg/injection, schedule: Q01DX010 (sc), vehicle: water",0 of 2 on day 11
same,T/C,"dose: 10.0 mg/kg/injection, schedule: Q04DX004 (sc), vehicle: water, evaluated on day 15","-32, 1, 35, 41, 72, 73 [2 of 3 alive on day 15], 74 [2 of 3 alive on day 15], 91 % of control"
same,survivor count,"dose: 10.0 mg/kg/injection, schedule: Q04DX004 (sc), vehicle: water",1 of 3 on day 15 and 1 of 2 on day 20
same,survivor count,"dose: 12.0 mg/kg/injection, schedule: Q01DX010 (sc), vehicle: saline",0 of 3 on day 20
same,survivor count,"dose: 15.0 mg/kg/injection, schedule: Q04DX004 (sc), vehicle: saline",1 of 3 on day 15
same,survivor count,"dose: 30.0 mg/kg/injection, schedule: Q04DX004 (sc), vehicle: saline",0 of 3 on day 15
same,survivor count,"dose: 60.0 mg/kg/injection, schedule: Q04DX004 (sc), vehicle: saline",0 of 3 on day 15
NC(=O)c1csc(C2OC(CO)C(O)C2O)n1 (stereo unspecified),T/C,"dose: 250.0 mg/kg/injection, schedule: Q04DX004 (sc), vehicle: water, evaluated on day 15",138 % of control
same,survivor count,"dose: 500.0 mg/kg/injection, schedule: Q04DX004 (sc), vehicle: water",2 of 6 on day 15
same,survivor count,"dose: 1000.0 mg/kg/injection, schedule: Q04DX004 (sc), vehicle: water",2 of 6 on day 15
Cc1cc2c(c3oc(C4(C)OC4C4OC4C)cc(=O)c13)C(=O)c1c(O)c(C3CC(C)(N(C)C)C(O)C(C)O3)cc(C3CC(N(C)C)C(O)C(C)O3)c1C2=O (stereo unspecified),survivor count,"dose: 0.25 mg/kg/injection, schedule: Q01DX010 (sc), vehicle: saline",0 of 3 on day 11
same,survivor count,"dose: 0.5 mg/kg/injection, schedule: Q01DX010 (sc), vehicle: saline",0 of 3 on day 11
same,survivor count,"dose: 1.0 mg/kg/injection, schedule: Q01DX010 (sc), vehicle: saline",0 of 2 on day 11
COc1cc(NS(C)(=O)=O)ccc1Nc1c2ccccc2nc2ccccc12,survivor count,"dose: 0.75 mg/kg/injection, schedule: Q01DX010 (sc), vehicle: other",0 of 3 on day 11
same,survivor count,"dose: 1.5 mg/kg/injection, schedule: Q01DX010 (sc), vehicle: lactic acid",1 of 3 on day 11
same,survivor count,"dose: 1.5 mg/kg/injection, schedule: Q01DX010 (sc), vehicle: other",0 of 3 on day 11
same,survivor count,"dose: 3.0 mg/kg/injection, schedule: Q01DX010 (sc), vehicle: lactic acid",0 of 3 on day 11
same,survivor count,"dose: 3.0 mg/kg/injection, schedule: Q01DX010 (sc), vehicle: other",0 of 3 on day 11
same,survivor count,"dose: 6.0 mg/kg/injection, schedule: Q01DX010 (sc), vehicle: lactic acid",0 of 3 on day 11
same,survivor count,"dose: 6.0 mg/kg/injection, schedule: Q01DX010 (sc), vehicle: other",1 of 3 on day 11
